Measurements reported in PubChem BioAssay AID1224830 (NIAID, 2016).
Aim: 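Host factors that control LPS-induced TNF expression in human macrophages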 (primary screen). Cell system: human THP-1 monocytic leukaemia cells, TNF dual-luciferase reporter clone, PMA-differentiated to macrophage-like cells. Reagents: siRNA pool against human genes, 50 nM. Timing: LPS for 4 h, given about 3 days after siRNA transfection. Conditions: bacterial LPS (TLR4 ligand), 10 ng/ml. Measured: 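Ratio of firefly to renilla light, scaled to the plate median and expressed as a robust z-score per replicate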. Scale: TNF reporter robust z-score: higher = stronger TNF reporter response to LPS. Rule for the call: 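Each well counts as active if its z-score is over 2.8 or under -1.5; controls are left without a call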.
Here is an unselected part of about 18,000 reagents. Over the whole deposit, about 2,900 (16%) got an active call. 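Calls are made per well; low scores hint the gene aids the LPS response, high scores that it dampens it.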 Repeated entries: four replicate wells of each siRNA pool. Reagent sequences are not shown.

gene symbol | TNF reporter robust z-score | Outcome
ACSF3 (acyl-CoA synthetase family member 3) | 0.07 | inactive
ACSF3 (acyl-CoA synthetase family member 3) | 1.33 | inactive
ACSF3 (acyl-CoA synthetase family member 3) | -0.27 | inactive
ACSF3 (acyl-CoA synthetase family member 3) | 1.01 | inactive
SWAP70 (switching B cell complex subunit SWAP70) | -0.35 | inactive
SWAP70 (switching B cell complex subunit SWAP70) | -0.39 | inactive
SWAP70 (switching B cell complex subunit SWAP70) | -1.17 | inactive
SWAP70 (switching B cell complex subunit SWAP70) | -0.48 | inactive
BRCC3 (BRCA1/BRCA2-containing complex subunit 3) | -0.65 | inactive
BRCC3 (BRCA1/BRCA2-containing complex subunit 3) | 0.57 | inactive
BRCC3 (BRCA1/BRCA2-containing complex subunit 3) | 0.1 | inactive
BRCC3 (BRCA1/BRCA2-containing complex subunit 3) | -0.38 | inactive
FOXI1 (forkhead box I1) | -0.28 | inactive
FOXI1 (forkhead box I1) | -0.27 | inactive
FOXI1 (forkhead box I1) | 0.23 | inactive
FOXI1 (forkhead box I1) | -0.08 | inactive
LCK (LCK proto-oncogene, Src family tyrosine kinase) | -0.73 | inactive
LCK (LCK proto-oncogene, Src family tyrosine kinase) | -0.37 | inactive
LCK (LCK proto-oncogene, Src family tyrosine kinase) | -0.75 | inactive
CHRM2 (cholinergic receptor muscarinic 2) | -0.82 | inactive
CHRM2 (cholinergic receptor muscarinic 2) | -1.13 | inactive
CHRM2 (cholinergic receptor muscarinic 2) | -0.71 | inactive
CHRM2 (cholinergic receptor muscarinic 2) | 0.67 | inactive
TMEM270 (transmembrane protein 270) | -0.57 | inactive
TMEM270 (transmembrane protein 270) | -0.79 | inactive
TMEM270 (transmembrane protein 270) | -1.09 | inactive
TMEM270 (transmembrane protein 270) | -0.68 | inactive
RFX7 (regulatory factor X7) | 0.89 | inactive
RFX7 (regulatory factor X7) | -0.58 | inactive
RFX7 (regulatory factor X7) | 0.11 | inactive
RFX7 (regulatory factor X7) | -0.11 | inactive
KRT20 (keratin 20) | -1.35 | inactive
KRT20 (keratin 20) | -0.45 | inactive
KRT20 (keratin 20) | -0.81 | inactive
KRT20 (keratin 20) | 0.09 | inactive
CELF3 (CUGBP Elav-like family member 3) | -1.25 | inactive
CELF3 (CUGBP Elav-like family member 3) | -1.48 | inactive
CELF3 (CUGBP Elav-like family member 3) | -1.18 | inactive
CELF3 (CUGBP Elav-like family member 3) | -1.31 | inactive

16 of these entries in another layout:
| gene symbol | TNF reporter robust z-score | Outcome |
| --- | --- | --- |
| LCK (LCK proto-oncogene, Src family tyrosine kinase) | -0.73 | inactive |
| LCK (LCK proto-oncogene, Src family tyrosine kinase) | -0.37 | inactive |
| LCK (LCK proto-oncogene, Src family tyrosine kinase) | -0.75 | inactive |
| CHRM2 (cholinergic receptor muscarinic 2) | -0.82 | inactive |
| CHRM2 (cholinergic receptor muscarinic 2) | -1.13 | inactive |
| CHRM2 (cholinergic receptor muscarinic 2) | -0.71 | inactive |
| CHRM2 (cholinergic receptor muscarinic 2) | 0.67 | inactive |
| TMEM270 (transmembrane protein 270) | -0.57 | inactive |
| TMEM270 (transmembrane protein 270) | -0.79 | inactive |
| TMEM270 (transmembrane protein 270) | -1.09 | inactive |
| TMEM270 (transmembrane protein 270) | -0.68 | inactive |
| RFX7 (regulatory factor X7) | 0.89 | inactive |
| RFX7 (regulatory factor X7) | -0.58 | inactive |
| RFX7 (regulatory factor X7) | 0.11 | inactive |
| RFX7 (regulatory factor X7) | -0.11 | inactive |
| KRT20 (keratin 20) | -1.35 | inactive |

The results go on.
gene symbol | TNF reporter robust z-score | Outcome
LZTR1 (leucine zipper like post translational regulator 1) | -0.1 | inactive
LZTR1 (leucine zipper like post translational regulator 1) | -0.54 | inactive
LZTR1 (leucine zipper like post translational regulator 1) | 0.88 | inactive
LZTR1 (leucine zipper like post translational regulator 1) | -0.13 | inactive
SPDYC (speedy/RINGO cell cycle regulator family member C) | -1.1 | inactive
SPDYC (speedy/RINGO cell cycle regulator family member C) | -0.19 | inactive
SPDYC (speedy/RINGO cell cycle regulator family member C) | -0.46 | inactive
SPDYC (speedy/RINGO cell cycle regulator family member C) | 0.16 | inactive
SGTA | -1.17 | inactive
SGTA | 0.97 | inactive
SGTA | -0.64 | inactive
SGTA | -1.4 | inactive
ZNF80 (zinc finger protein 80) | -1.59 | active
ZNF80 (zinc finger protein 80) | -1.85 | active
ZNF80 (zinc finger protein 80) | -1 | inactive
ZNF80 (zinc finger protein 80) | -0.43 | inactive
PRSS2 (serine protease 2) | -0.31 | inactive
PRSS2 (serine protease 2) | -0.03 | inactive
PRSS2 (serine protease 2) | 0.26 | inactive
PRSS2 (serine protease 2) | 0.23 | inactive
TLNRD1 (talin rod domain containing 1) | 0.03 | inactive
TLNRD1 (talin rod domain containing 1) | 0.4 | inactive
TLNRD1 (talin rod domain containing 1) | 0.12 | inactive
TLNRD1 (talin rod domain containing 1) | -0.17 | inactive
CLINT1 (clathrin interactor 1) | -1.61 | active
CLINT1 (clathrin interactor 1) | -1.26 | inactive
CLINT1 (clathrin interactor 1) | -1.39 | inactive
CLINT1 (clathrin interactor 1) | -1.13 | inactive
CENPH (centromere protein H) | -0.9 | inactive
CENPH (centromere protein H) | -0.92 | inactive
CENPH (centromere protein H) | -1.04 | inactive
CENPH (centromere protein H) | -0.78 | inactive
NUTM1 (NUT midline carcinoma family member 1) | -0.36 | inactive
NUTM1 (NUT midline carcinoma family member 1) | 0.66 | inactive
NUTM1 (NUT midline carcinoma family member 1) | 0.31 | inactive
NUTM1 (NUT midline carcinoma family member 1) | 1.12 | inactive
PSG9 (pregnancy specific beta-1-glycoprotein 9) | 1.08 | inactive
PSG9 (pregnancy specific beta-1-glycoprotein 9) | 0.52 | inactive
PSG9 (pregnancy specific beta-1-glycoprotein 9) | -0.85 | inactive
PSG9 (pregnancy specific beta-1-glycoprotein 9) | -0.49 | inactive
SLA (Src like adaptor) | 0.34 | inactive
SLA (Src like adaptor) | -0.35 | inactive
SLA (Src like adaptor) | 0.08 | inactive
SLA (Src like adaptor) | 1.22 | inactive
RHBDL3 (rhomboid like 3) | 1.36 | inactive
RHBDL3 (rhomboid like 3) | 0.22 | inactive
RHBDL3 (rhomboid like 3) | 1.16 | inactive
RHBDL3 (rhomboid like 3) | -0.72 | inactive
EPO (erythropoietin) | -1.29 | inactive
EPO (erythropoietin) | -0.53 | inactive
EPO (erythropoietin) | -1.27 | inactive
EPO (erythropoietin) | -1.1 | inactive
ALKBH5 (alkB homolog 5, RNA demethylase) | 1.12 | inactive
ALKBH5 (alkB homolog 5, RNA demethylase) | 0.44 | inactive
ALKBH5 (alkB homolog 5, RNA demethylase) | 0.51 | inactive
ALKBH5 (alkB homolog 5, RNA demethylase) | 2.34 | inactive
SLC66A3 | -0.52 | inactive
SLC66A3 | 0.32 | inactive
SLC66A3 | -0.67 | inactive
SLC66A3 | -0.07 | inactive
PDK1 (pyruvate dehydrogenase kinase 1) | 0.67 | inactive
PDK1 (pyruvate dehydrogenase kinase 1) | -0.38 | inactive
PDK1 (pyruvate dehydrogenase kinase 1) | -0.34 | inactive
PDK1 (pyruvate dehydrogenase kinase 1) | -1.12 | inactive
TBC1D3G (TBC1 domain family member 3G) | -0.38 | inactive
TBC1D3G (TBC1 domain family member 3G) | 1.51 | inactive
TBC1D3G (TBC1 domain family member 3G) | 0.41 | inactive
TBC1D3G (TBC1 domain family member 3G) | 1.01 | inactive
NPR1 (natriuretic peptide receptor 1) | -0.51 | inactive
NPR1 (natriuretic peptide receptor 1) | 0.79 | inactive
NPR1 (natriuretic peptide receptor 1) | 0.2 | inactive
NPR1 (natriuretic peptide receptor 1) | 1.55 | inactive
